This passage reports binding results from US20190269788A1.

By UniProt entry, the sequences of proteins in these tests, tags left out. Where a name states a change or a piece, a line headed by the entry shows the natural chain unless it says otherwise.
UniProt P08069: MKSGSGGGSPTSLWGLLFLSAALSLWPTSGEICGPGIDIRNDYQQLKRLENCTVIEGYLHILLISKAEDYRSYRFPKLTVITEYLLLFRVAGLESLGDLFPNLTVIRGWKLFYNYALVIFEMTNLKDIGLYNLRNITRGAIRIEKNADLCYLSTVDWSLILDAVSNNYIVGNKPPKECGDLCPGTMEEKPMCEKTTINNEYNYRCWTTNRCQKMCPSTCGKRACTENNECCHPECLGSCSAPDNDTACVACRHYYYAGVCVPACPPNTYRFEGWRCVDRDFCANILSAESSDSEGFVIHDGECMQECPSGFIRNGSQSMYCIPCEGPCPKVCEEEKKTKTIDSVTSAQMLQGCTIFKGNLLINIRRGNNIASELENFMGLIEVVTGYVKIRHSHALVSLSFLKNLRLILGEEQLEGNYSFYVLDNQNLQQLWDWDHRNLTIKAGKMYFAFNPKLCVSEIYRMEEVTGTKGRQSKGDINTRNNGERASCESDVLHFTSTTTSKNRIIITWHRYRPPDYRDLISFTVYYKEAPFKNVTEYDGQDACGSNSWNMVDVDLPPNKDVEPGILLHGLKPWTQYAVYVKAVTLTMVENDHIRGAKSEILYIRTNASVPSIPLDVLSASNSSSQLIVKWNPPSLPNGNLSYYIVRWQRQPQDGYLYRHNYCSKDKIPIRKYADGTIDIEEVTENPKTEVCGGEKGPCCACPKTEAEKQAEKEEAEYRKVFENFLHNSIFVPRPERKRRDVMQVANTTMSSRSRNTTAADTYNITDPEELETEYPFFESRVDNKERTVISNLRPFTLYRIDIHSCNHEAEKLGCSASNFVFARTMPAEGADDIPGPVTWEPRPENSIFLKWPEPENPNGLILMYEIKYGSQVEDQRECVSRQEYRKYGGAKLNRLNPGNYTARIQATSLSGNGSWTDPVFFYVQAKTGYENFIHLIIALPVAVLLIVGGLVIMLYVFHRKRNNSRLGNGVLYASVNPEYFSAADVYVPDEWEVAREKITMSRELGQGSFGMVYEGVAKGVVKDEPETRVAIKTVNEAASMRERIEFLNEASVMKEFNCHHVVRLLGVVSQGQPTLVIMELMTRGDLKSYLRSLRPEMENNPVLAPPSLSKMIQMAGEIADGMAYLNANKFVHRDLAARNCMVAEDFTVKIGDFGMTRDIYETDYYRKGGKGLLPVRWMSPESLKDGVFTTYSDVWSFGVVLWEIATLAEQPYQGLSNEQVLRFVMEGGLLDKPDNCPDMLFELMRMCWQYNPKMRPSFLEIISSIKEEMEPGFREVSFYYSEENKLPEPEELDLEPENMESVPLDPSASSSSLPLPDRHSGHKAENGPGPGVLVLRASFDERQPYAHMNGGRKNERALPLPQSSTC

Experiment [1] concerns the target human IGF-1R, native, on MCF-7 cells or on hIGF-1R transfected cells (human) (UniProt P08069). The experiment in a line: FACS on MCF-7 cells.
Experiment [2] has the same target. As to the kind of experiment: FACS titration on MCF-7 cells.

No constants are given. Whether binding was seen depends on the method and setting. Some binding calls cover weakened binding; strength is not graded here.

B1: hz208F2 VH3/VL3 (antibody, human IgG1, kappa, V domains shown)
VH: QVQLVQSGAEVKKPGASVKMSCKASGYTFTSYYIYWVKQAPGQGLEWLGWIWPGDGSTKYNEKFQGRVTLTADKSSNTAYMFLSSLRSEDTAVYFCASPMITPNYAMDYWGQGTLVTVSS
VL: DIQMTQSPSSLSASVGDRVTISCRASQDISKYLNWYQQKPGKAPKLLIYYTSRLHSGVPSRFSGRGSGTDYSLTISNLQPEDFATYFCQQGSTLPYTFGGGTKVEIKR
Take B1: the binding entry in experiment [1] and in experiment [2] was “binds” throughout.
